Reference: PMC7915940 (Molecules, 2021)

Test: general procedure: Fmoc solid-phase peptide synthesis; Rink-amide MBHA resin; HBTU/HOBt/DIEA or DIC/DMAP
Details: whole synthesis, Shimadzu LC MS/MS 8045

Substance | purity (crude or final not stated) [%]
Caf-KLβAKLβAK-NH2 | 82.17
KLAKLAK-NH2 | 100.00
Caf-KnLAKnLAK-NH2 | 100.00
Caf-KLAKLAK-NH2 | 82.37
(KLAKLAK)2-NH2 | 100.00
1,8-naphthalimideG-KLAKLAK-NH2 | 98.07
